System: REDS3 cells
Assay: RFP reporter expression in REDS3 cells (live cell imaging)
Assay type: cell-based, human
Protocol: Cells were seeded on clear flat bottom 96-well or 384-well plates (Corning) and treated with the indicated compounds for the specified conditions. Live cell imaging pictures were taken with the Operetta High Content Screening System (PerkinElmer), 20× objective and non-confocal mode.
Only RFP-positive nuclei were detected and counted.
The increase of RFP fluorescence, detected with the Operetta High Content Screening System (PerkinElmer), 20× objective and non-confocal mode, was used as read-out.
Briefly, the screening was divided in three parts called respectively 1) primary screening, 2) follow up and 3) validation. During the primary screening REDS3 cells were treated with 10 μM of every compound, and live cell imaging pictures were taken in order to assess their ability to induce RFP expression 24 hours later.

Row | SMILES | RFP expression in REDS3 cells | confirmed screening hit (RFP induction in REDS3 screen) (library screen of 89,355 small molecules, 24 hours)
1 | Cc1nnc2ccc(NCCC3=CCCCC3)nn12 [CeMMEC2] | expressed RFP detected by live cell imaging in a dose-dependent manner | 
2 | CCNC(=O)C[C@@H]1N=C(c2ccc(Cl)cc2)c2cc(OC)ccc2-n2c(C)nnc21 [I-BET-762] |  | part of this group

— patent US10702518B2, “TAF1 inhibitors for the therapy of cancer” (CeMM—Forschungszentrum für Molekulare Medizin GmbH, priority 2016, dated 2020)
